Data: the supplement of paper PMC3334620
Over roughly 33,000 sequences, “E-score (-0.5 to 0.5)” has its median near -0.016; the highest 2% begin near 0.3. The list shows a part of the results.

target: T1, Yer184c (UniProt P39961); experiment: PBM E-score (8-mer binding enrichment) (E-score (-0.5 to 0.5)); higher = stronger / more preferred TF binding; details: protein concentration: 100 nM; construct: GST-full length
T1 sequence: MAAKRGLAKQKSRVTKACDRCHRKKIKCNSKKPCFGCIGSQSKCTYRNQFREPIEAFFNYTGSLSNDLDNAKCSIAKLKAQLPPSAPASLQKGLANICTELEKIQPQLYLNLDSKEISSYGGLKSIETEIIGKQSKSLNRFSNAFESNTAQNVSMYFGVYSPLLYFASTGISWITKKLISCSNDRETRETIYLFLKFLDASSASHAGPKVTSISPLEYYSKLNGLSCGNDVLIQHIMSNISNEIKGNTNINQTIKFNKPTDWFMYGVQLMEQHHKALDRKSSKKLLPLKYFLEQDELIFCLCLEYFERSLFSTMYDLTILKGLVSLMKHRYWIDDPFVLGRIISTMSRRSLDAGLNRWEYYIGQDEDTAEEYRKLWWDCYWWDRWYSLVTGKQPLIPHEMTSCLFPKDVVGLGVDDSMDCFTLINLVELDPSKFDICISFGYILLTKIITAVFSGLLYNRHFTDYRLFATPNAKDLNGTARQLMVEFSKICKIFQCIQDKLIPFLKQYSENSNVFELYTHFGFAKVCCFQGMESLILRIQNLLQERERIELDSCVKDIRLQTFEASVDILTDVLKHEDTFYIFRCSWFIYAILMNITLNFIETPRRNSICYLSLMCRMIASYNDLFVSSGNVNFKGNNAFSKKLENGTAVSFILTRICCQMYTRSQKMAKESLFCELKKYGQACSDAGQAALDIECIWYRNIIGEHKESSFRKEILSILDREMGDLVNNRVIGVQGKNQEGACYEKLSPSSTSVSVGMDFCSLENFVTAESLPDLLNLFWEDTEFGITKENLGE
In short: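 Using PURExpress in vitro transcription/translation, GST-tagged yeast transcription factors were made in full-length or DNA-binding-domain form. These were applied at about 100-200 nM to double-stranded universal all-10-mer Agilent arrays, and bound protein was detected with fluorescent anti-GST. Scans were normalised with masliner before the Universal PBM Analysis Suite assigned E-scores to ungapped eight-base words pooled with their reverse complements.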

Row | Sequence | PBM E-score
1 | ATCGGGCG | -0.0399
2 | CGTTTGAA | 0.0743
3 | CGTACGAG | -0.154
4 | GCGTGAAC | -0.065
5 | AAGGTGGC | -0.159
6 | CTATGAAG | 0.0367
7 | ATACGTTC | -0.219
8 | CAAATCGA | -0.0226
9 | GGTGCTTA | -0.0113
10 | ACTCTATC | -0.096
11 | ACCCGGCA | 0.187
12 | GACGCCGC | 0.0636
13 | CCGCAATA | 0.151
14 | CAACAAAG | 0.0753
15 | ACAGTACG | -0.0206
16 | GATACGAA | 0.0954
17 | ATTTTGCG | 0.109
18 | GCGCCCCC | -0.383
19 | CCGTCGAG | 0.197
20 | AAATAATT | 0.253
21 | AAGGGTTA | -0.125
22 | GCTCTGTA | -0.0523
23 | AGTAAAAA | 0.149
24 | AGTAGGGA | -0.0279
25 | CTACGCTC | -0.267

Quoted from above (3 entries):
Row | Sequence | PBM E-score
5 | AAGGTGGC | -0.159
6 | CTATGAAG | 0.0367
7 | ATACGTTC | -0.219

(next part)

Row | Sequence | PBM E-score
26 | ATCTCCTC | -0.11
27 | AATATTCC | 0.342
28 | AATGAACC | 0.055
29 | ACCACCGT | -0.0332
30 | ACGGGGGG | -0.35
31 | AGCCTCAC | -0.218
32 | CGGCGCAC | 0.216
33 | CCGAATGA | 0.321
34 | ACGAATCA | 0.0706
35 | CGGCCATC | 0.0642
36 | AATATGCT | 0.0287
37 | CAATCCTC | -0.113
38 | AGAAGTTG | -0.133
39 | AGTGGGGG | -0.385
40 | ATGGAGCC | -0.203
41 | TAATGTGA | 0.148
42 | CACCGGCG | 0.238
43 | AATACTGT | 0.188
44 | AACCTGAT | 0.061
45 | AATATAAG | 0.297
46 | CCAGCTTA | -0.0115
47 | GGCAGAGA | 0.0289
48 | TGACGCAA | -0.173
49 | AACTGCAT | 0.00033
50 | AACTCCTA | -0.0126

Row | Sequence | PBM E-score
51 | AGATATTG | 0.0412
52 | GAGGACTC | -0.298
53 | CCGTTTGC | 0.0779
54 | CAAGGCAC | -0.205
55 | GTAGTTCA | -0.0304
56 | CCCCGGGC | 0.217
57 | CTGTGGAC | -0.252
58 | TATAAGCA | 0.0411
59 | GTACCTGA | 0.0813
60 | AAGCACTG | -0.0258
61 | CAGTTTTA | -0.0165
62 | ACTAAAGA | -0.0181
63 | ACCCTAGA | -0.153
64 | ACTCAACA | 0.00285
65 | GGACCGCA | 0.107
66 | CGTGAGGA | -0.187
67 | CTTACCGC | 0.12
68 | AGACGCAG | -0.0432
69 | CTACCAAC | -0.00162
70 | AGTTACCC | -0.0391
71 | GCCAATGA | -0.259
72 | GACGCTGC | -0.0825
73 | AGAGATGC | -0.142
74 | ATGTCCAG | -0.0601
75 | ATCCGGAT | 0.442

Row | Sequence | PBM E-score
76 | ATCCGGTA | 0.206
77 | AGAATTTC | -0.0445
78 | ACCGTACG | -0.159
79 | GGATCGAC | 0.0648
80 | ACAACCCT | -0.208
81 | ATTTGAAA | 0.194
82 | ACATCAAA | 0.0764
83 | CCAAAGGA | -0.102
84 | CAGTCCAC | -0.325
85 | CCAGGTAG | -0.2
86 | ATCAGGAT | 0.115
87 | CTTCAAAG | 0.103
88 | ATGTACAG | 0.054
89 | GCTTATCC | 0.0641
90 | CAATTCGA | -0.0612
91 | CGACGTAG | -0.294
92 | CCTCTACG | -0.114
93 | GCAGATCA | -0.152
94 | ATTATAGG | 0.0984
95 | AAACCAAC | 0.166
96 | CAAGTGCA | -0.298
97 | ATCGTATA | 0.17
98 | AATTACAC | 0.0814
99 | AAACCTAT | 0.0484
100 | GCAATTAC | 0.0435

Row | Sequence | PBM E-score
101 | TAATCAAA | 0.274
102 | CAATAAGG | -0.165
103 | ACTGACCA | -0.162
104 | ATGGCGGC | 0.118
105 | ACACCAAT | 0.0441
106 | ACCAGGAT | -0.107
107 | CCTCCGGC | 0.3
108 | CTATATGA | 0.134
109 | TCCTGACA | 0.0359
110 | CGAATTAG | 0.116
111 | GCGGACTA | 0.165
112 | CACCTTCG | 0.0651
113 | GGGTATAC | -0.0147
114 | TCGCTGAA | 0.0753
115 | ATAAGTGG | 0.02
116 | AACGTGCG | -0.1
117 | CTACTTCA | -0.0486
118 | CGCACCAC | -0.139
119 | AGGCAACA | -0.22
120 | AGGCGGAA | 0.195
121 | GGGCGGTA | -0.0752
122 | TCGCACAA | -0.0958
123 | ATACATTG | 0.063
124 | ATGTAGGC | -0.114
125 | GTGCATCA | 0.0558

Row | Sequence | PBM E-score
126 | GGCAGCTA | 0.00029
127 | AGAGCGTC | -0.217
128 | AGGTCAAT | -0.121
129 | CCAACCCA | -0.328
130 | ATTCAGGC | -0.057
131 | CCACGGTC | -0.194
132 | ACGACCAT | -0.221
133 | AAAGGCGA | -0.124
134 | GGCGCTAC | -0.185
135 | ACACGGTG | 0.00523
136 | CGGATCGA | 0.227
137 | TAAAAAAA | 0.203
138 | ACTGTACA | -0.0614
139 | GGTTGAGA | -0.00813
140 | ACTTCTAC | -0.0211
141 | TATCTGGA | 0.00154
142 | CACGCCGC | -0.0484
143 | CGCCGACA | 0.18
144 | AGCGTGTC | -0.169
145 | ATTCCTAG | -0.0295
146 | CGGTGTGC | -0.15
147 | ACGGCTTG | -0.0131
148 | CAGCCAAC | -0.0894
149 | CTATATAA | 0.0877
150 | AATATTCT | 0.0516

Row | Sequence | PBM E-score
151 | CAGAACTG | 0.219
152 | AGCGGTAT | 0.114
153 | CGGACCCA | 0.157
154 | AACGTGAG | -0.0764
155 | AAGGCAGG | -0.178
156 | GCATTCCA | -0.242
157 | ATGGTGAA | -0.00196
158 | AAAACTAA | 0.203
159 | CTGATGCA | 0.0132
160 | ATGAATCC | -0.022
161 | GTTAAGTA | 0.0522
162 | CGCATCCC | -0.259
163 | CTCATATA | 0.0315
164 | AATATCGA | 0.0873
165 | ACGGGCCT | -0.134
166 | CAGCCGAA | 0.229
167 | CACGGGAG | -0.108
168 | CGCCGGTA | 0.216
169 | AAACTATT | 0.119
170 | GATCCGGC | 0.354
171 | CGCGAAAC | -0.0391
172 | CGTACGTA | -0.207
173 | AGCGCAGA | -0.104
174 | ATCTAGGA | -0.00133
175 | AATAAGGT | 0.0627

Individual results from above:
In PBM E-score, AATATGCT has 0.0287
In PBM E-score, CGTTTGAA has 0.0743
In PBM E-score, ATGGTGAA has -0.00196
In PBM E-score, ACTGACCA has -0.162
In PBM E-score, TATCTGGA has 0.00154

Additional results follow:

Row | Sequence | PBM E-score
176 | ATGATAAG | 0.174
177 | ACAAGCGT | -0.171
178 | ATCTTTAG | 0.133
179 | AGTCGCGC | 0.0958
180 | CCACTCGG | 0.0777
181 | TATACGCA | 0.108
182 | CCGATGAC | 0.0358
183 | CGATGACC | -0.102
184 | CGTCCTGC | -0.188
185 | ACAGCGAT | -0.111
186 | CGGCTCCA | 0.198
187 | ACCAATTC | 0.00772
188 | ATTCCGCC | 0.16
189 | CAAACAGA | 0.0849
190 | CCAGTGCG | -0.0822
191 | CATGTTGC | -0.139
192 | ACCCGTAT | 0.0115
193 | GCGTCTAC | 0.0222
194 | AGATTCTA | 0.124
195 | AATTAAAC | 0.149
196 | CACGAATA | 0.0228
197 | CAAAGTAC | 0.106
198 | AGGCTTAG | -0.153
199 | GCAAGGAA | 0.032
200 | CAGGTCGG | -0.119

Row | Sequence | PBM E-score
201 | ACCACTTA | -0.0262
202 | GCAGGAGA | -0.0394
203 | CTATCCGC | 0.23
204 | CTTATTGA | 0.208
205 | GACCCAGC | -0.245
206 | ATACTACG | 0.0265
207 | CAGCCATC | -0.24
208 | AGCGGGCG | -0.0488
209 | CGAAACCA | 0.173
210 | ACCGATAT | 0.0777
211 | CATCAATA | 0.00105
212 | AACATTAC | 0.0941
213 | CGAACCCG | 0.0612
214 | CAATAGGA | -0.0319
215 | ACAAACGC | 0.0505
216 | ACGCCGAA | 0.343
217 | AGATGGGC | -0.0184
218 | TAGTAATA | 0.116
219 | ACTAGGGA | -0.319
